Laboratory results from PubChem BioAssay AID602346 (Broad Institute, 2012).
Hit rate of the full screen: of about 340,000 compounds, about 1,200 (0.35%) were called active. Inconclusive results, whose numbers are uncertain, are shown with a selection of clear calls. Rule as the data show it: active = inhibition above about 50% (passing the limit was not always enough); inconclusive = no clear call, values can overlap the other calls; inactive = below about 31%.

Experiment: blockers of Vif multimerization in cells – imaging, HEK293T, single point, primary screen (AID 602346)
Settings: Vif self-association by quenched fluorescence, 24 h, at 7.49 µM, hits give high values
In the case of `Cc1cc(C(=O)Cn2ncc(Cl)c(Cl)c2=O)c(C)n1CC(F)(F)F`, the inhibition is reported as inconclusive: 26.1%.
For `Cc1ccc(CN2CC(C(=O)N3CCN(S(=O)(=O)c4c(F)cccc4F)CC3)CC2=O)cc1` (stereo not drawn), the inhibition was inconclusive: 37.4%.
In the case of `COc1ccc(S(=O)(=O)NCC(=O)N(CC(=O)NCC2CCCO2)Cc2ccccc2)cc1` (stereo not drawn), the inhibition is reported as active: 70.8%.
In the case of `O=C1Nc2ncccc2OC1CCCl` (stereo not drawn), the inhibition is reported as inconclusive: 39.9%.
In the case of `Cc1cccc(NC(=S)NCc2cccs2)c1C`, the inhibition is reported as inconclusive: 34.7%.
For `CCN(CC(=O)Nc1c(F)cccc1F)C(=O)CC1CCCC1`, the inhibition was inconclusive: 34.1%.
For `C/C(=N\NC(=O)c1ccccc1F)c1ccc2c(c1)Nc1ccccc1S2`, the inhibition was inactive: -15.7%.
For `CCN(CC)S(=O)(=O)c1ccc(N2CCN(C)CC2)c(NC(=O)COc2ccc(F)cc2Cl)c1`, the inhibition was inconclusive: 30.6%.
With `Cc1cccc(-c2sc(Nc3ccccc3)n[n+]2-c2ccc(F)cc2)c1` the inhibition was inactive: 3.43%.
For `COc1ccc(/C=N/NC(=O)CN2CCCC2)cc1`, the inhibition was inactive: -9.83%.
For `CCC(C)NS(=O)(=O)c1ccc(S(=O)(=O)N(CC(=O)Nc2ccccc2)Cc2ccco2)cc1` (stereo not drawn), the inhibition was inactive: -12.2%.
With `COc1ccc(-c2sc3cc4c(cc3c2C#Cc2ccc(N)cc2)OCO4)cc1` the inhibition was inactive: 20.6%.
In the case of `O=C(Nc1cccc(-c2nc3ccccc3[nH]2)c1)c1cccc(NC(=O)c2ccco2)c1`, the inhibition is reported as active: 72.2%.
For `O=C(c1ccc(Cl)c(Cl)c1)N(Cc1ccco1)c1ccc(O)cc1`, the inhibition was active: 54.3%.
In the case of `CC1=CC(=O)N(c2cccc3c(N4C(=O)C=C(C)C4=O)cccc23)C1=O`, the inhibition is reported as inconclusive: 32.6%.
In the case of `COc1ccc(-c2csc(Nc3ccccc3)n2)cc1`, the inhibition is reported as inactive: -4.97%.
With `CCN(CC)S(=O)(=O)c1ccc(Cl)c(NC(=O)COC(=O)/C=C/c2ccc(O)c(OC)c2)c1` the inhibition was inconclusive: 27.9%.
In the case of `Cc1nc(SCC(=O)NCCc2ccccc2)n[nH]1`, the inhibition is reported as inactive: 17.6%.
In the case of `O=c1c(O)c(-c2cccs2)oc2ccccc12`, the inhibition is reported as inconclusive: 43.3%.
With `Cc1ccc(S(=O)(=O)NC(=O)C2(C)CCN2C(=O)c2cccc(F)c2)nc1` (stereo not drawn) the inhibition was inconclusive: 41.3%.
In the case of `CS(=O)(=O)N(CC(=O)N1CCCC1)c1ccc(Cl)cc1Cl`, the inhibition is reported as inconclusive: 25.7%.
In the case of `O=C(O)CCC1(CCC(=O)O)CCCC(CCC(=O)O)(CCC(=O)O)C1=O`, the inhibition is reported as inactive: 8.39%.
In the case of `CCN(CC)S(=O)(=O)c1ccc(C(=O)Nc2cc(S(=O)(=O)N3CCOCC3)ccc2N2CCN(C)CC2)cc1`, the inhibition is reported as inconclusive: 35.4%.
With `Cn1c(=O)cc(OCCCC(=O)Nc2cccc(Cl)c2)c2ccccc21` the inhibition was inconclusive: 45.7%.
For `COCCn1c(=O)[nH]c2cc(C(=O)Nc3ccc(OC)c(Cl)c3)ccc2c1=O`, the inhibition was inconclusive: 44.3%.
With `COCCN(C(=O)C1=COCCO1)c1c(N)n(CC(C)C)c(=O)[nH]c1=O` the inhibition was inconclusive: 32.1%.
For `O=C(NN/C(=N/S(=O)(=O)c1ccc(Cl)cc1)c1ccccc1)c1ccc(O)cc1`, the inhibition was inactive: 13.9%.
In the case of `COC(=O)c1cc2oc3ccccc3c2n1Cc1ccccn1`, the inhibition is reported as inconclusive: 9.83%.
In the case of `Cc1ccc(-c2nn3c(C)nnc3c3ccccc23)cc1S(=O)(=O)NC(C)(C)CO`, the inhibition is reported as inconclusive: 42.3%.
In the case of `COc1cccc(OC)c1C(=O)N1CCN(Cc2ccccc2F)CC1`, the inhibition is reported as inconclusive: 28.6%.
For `CCN(CC)c1ncnc2c1cnn2Cc1ccc(Cl)cc1`, the inhibition was inactive: 0.373%.
With `CC(C)(C)OC(=O)N1CCC(c2c(C(=O)NCC3CCN(C4CCCC4)C3)cnn2-c2ccc(F)cc2)CC1` (stereo not drawn) the inhibition was active: 60.2%.
With `O=C(COC(=O)CCCN1C(=O)c2ccccc2C1=O)Nc1ncc(Cl)cc1Cl` the inhibition was inactive: 0.057%.
In the case of `Cc1cc(C)c2c(CN3CCN(Cc4ccccc4)CC3)cc(=O)oc2c1`, the inhibition is reported as active: 104%.
With `COC(=O)c1ccc(SCC(=O)NC2CCCC2)c([N+](=O)[O-])c1` the inhibition was inconclusive: 26.1%.
With `CN1C(=S)SC(C)(C)C1NO` (stereo not drawn) the inhibition was inactive: 4.58%.
With `Cc1ccc(C)c(N2CCN(C(=O)c3cn(C)c4ccc(S(=O)(=O)N(C)C)cc4c3=O)CC2)c1` the inhibition was inconclusive: 35.9%.
With `CCOc1ccc(C(c2c(C)n(C)n(-c3ccccc3)c2=O)c2c(C)n(C)n(-c3ccccc3)c2=O)c(O)c1` the inhibition was inconclusive: 39.4%.
In the case of `CC(C)(O)CCCC(C)(O)c1ccc(C(=O)O)cc1O` (stereo not drawn), the inhibition is reported as inconclusive: 47.2%.
With `C=C(C)[C@@H]1C2=CC(C(=O)OC)=C(C[C@H](C(=C)C)[C@H]3O[C@H]3C3=C[C@H]1OC3=O)O2` the inhibition was inconclusive: 33.4%.
With `COc1ccc(OC)c(S(=O)(=O)NC(C)c2cnn(-c3ccccn3)c2C)c1` (stereo not drawn) the inhibition was inconclusive: 27.2%.
For `CO[C@@]1(NC(=O)CSCC#N)C(=O)N2C(C(=O)O)=C(CSc3nnnn3C)CS[C@@H]21`, the inhibition was inconclusive: 24.6%.
In the case of `CCc1ccccc1Oc1nc2cc(-c3cccc(OC)c3)sc2c(=O)n1C`, the inhibition is reported as inconclusive: 39.1%.
With `COc1ccccc1CCC(=O)N1CCN(S(=O)(=O)c2cc(C(F)(F)F)ccc2Cl)CC1` the inhibition was inconclusive: 38.5%.
With `O=C(CCn1cccc1)NCc1ccc(Cl)cc1` the inhibition was inconclusive: 34%.
In the case of `CCOC(=O)N1CCN(S(=O)(=O)c2ccc3c(c2)NC(=O)CO3)CC1`, the inhibition is reported as inactive: -1.67%.
For `COc1ccc(-c2noc(CCC(=O)Nc3cccc(C(=O)NC4CC4)c3)n2)cc1OC`, the inhibition was inconclusive: 27.1%.
For `O=C(COC(=O)CC1CC2CCC1C2)NCc1ccccc1` (stereo not drawn), the inhibition was inconclusive: 35.3%.
In the case of `COC(=O)c1ccc(CSc2nc3ccccc3s2)o1`, the inhibition is reported as inconclusive: 25.2%.
In the case of `CN(CC(=O)Nc1ccc(Cl)cc1)C(=O)COc1ncnc2ccccc12`, the inhibition is reported as inconclusive: 35.2%.
In the case of `C(=N\Nc1nncc2ccccc12)/c1ccccn1`, the inhibition is reported as inconclusive: 44.6%.
With `CC1CC1C(=O)OCC(=O)NCc1ccc(Cl)cc1Cl` (stereo not drawn) the inhibition was inconclusive: 21.6%.
In the case of `c1ccc(CN2CCN(C(c3ccccc3)c3ccccc3)CC2)cc1`, the inhibition is reported as inactive: 12.9%.
With `CN(NC(=O)Nc1ccccc1)c1cnn(C)c(=O)c1Cl` the inhibition was inconclusive: 34.7%.
In the case of `CCOC(=O)c1cc(OC(=O)c2ccccc2OC)n(-c2ccccc2)n1`, the inhibition is reported as active: 77.6%.
In the case of `CC(=O)Oc1cccc(N2C(=O)c3cccc4c([N+](=O)[O-])ccc(c34)C2=O)c1`, the inhibition is reported as active: 118%.
With `O=C(Cc1ccc(-n2c(=O)[nH]c3ccsc3c2=O)cc1)N1CCN(c2ccc(Cl)cc2)CC1` the inhibition was inactive: 6.46%.
With `CCCCC(=O)NCc1ccc2c(c1)cc(C)n2C` the inhibition was active: 67.7%.
For `Cc1ccc(Cl)cc1NC(=S)N1CCC(c2ccccc2)C1` (stereo not drawn), the inhibition was inconclusive: 21%.
With `CCCc1[nH]nc2c1C1(CCOC1C)C(C#N)=C(N)O2` (stereo not drawn) the inhibition was inconclusive: 33.2%.
For `CC(C)NC(=O)c1ccc(-c2ccc(F)c(F)c2)c2ccoc12`, the inhibition was inactive: 3.02%.
In the case of `COC(=O)C1CCCCN1C(=O)c1cc(COc2cccc3cnccc23)on1` (stereo not drawn), the inhibition is reported as inactive: -17.1%.
In the case of `O=C1CCN(Cc2ccc(O)cc2)CCN1[C@H](CO)Cc1ccccc1`, the inhibition is reported as active: 54.1%.
With `O=[N+]([O-])c1cccnc1NCc1cccs1` the inhibition was inconclusive: 18.3%.
In the case of `CC(C)C1Oc2ccccc2N(CC(=O)N(C)C2CCCCC2)C1=O` (stereo not drawn), the inhibition is reported as inconclusive: 25.2%.
In the case of `CS(=O)(=O)N(CC(N)=O)Cc1ccc(Cl)cc1`, the inhibition is reported as inconclusive: 26%.
In the case of `COc1ccc(CCNC(=O)CCC(=O)N2CCN(S(=O)(=O)c3ccccc3)CC2)cc1OC`, the inhibition is reported as inconclusive: 31.1%.
In the case of `COc1cc(OC)cc(C(=O)NC2=NCCS2)c1`, the inhibition is reported as inconclusive: 19.3%.
With `CSc1ccc(Cl)c(C(=O)OCC(=O)N2CCNC2=O)c1` the inhibition was inconclusive: 41.6%.
With `CCOC(=O)C1(Cc2ccccc2)CCN(Cc2csc(C(C)=O)c2)CC1` the inhibition was active: 119%.
With `CN(CCCNC(=O)CCCOc1cc(=O)n(C)c2ccccc12)Cc1ccccc1` the inhibition was inactive: -4.41%.
With `Cc1cc(C)c(C)c(S(=O)(=O)N[C@@H](C)C(=O)OCC(=O)NC2CCCC(C)C2C)c1C` (stereo partly drawn) the inhibition was inconclusive: 27.9%.
For `O=C(COC(=O)CCSc1ccccc1)Nc1ccc(F)cc1Cl`, the inhibition was inactive: -1.74%.
In the case of `CC(C)C(c1nnnn1Cc1ccc2c(c1)OCO2)N1CCN(C)CC1` (stereo not drawn), the inhibition is reported as active: 65.9%.
With `CCOC(=O)c1sc2nc(C)nc(SCC(=O)NC(C)CCc3ccccc3)c2c1C` (stereo not drawn) the inhibition was inconclusive: 24.1%.
For `NC(=O)c1cccc2c(=O)oc3ccccc3c12`, the inhibition was inconclusive: 27.1%.
With `CCOc1ccc(S(=O)(=O)N2CCN(S(=O)(=O)c3ccc(C(C)=O)cc3)CC2)cc1` the inhibition was inconclusive: 33.2%.
With `O=C(NN=Cc1c(O)ccc2ccccc12)c1ccc2c(c1)OCO2` the inhibition was inactive: -19.8%.
In the case of `COc1cc(NCCCNC(C)C)c2nccc(C)c2c1`, the inhibition is reported as active: 67.4%.
In the case of `Cc1ccc(NC(=O)NNC(=O)COc2ccc([N+](=O)[O-])cc2)cc1C`, the inhibition is reported as inactive: 0.955%.
With `Cc1cc(C)c(S(=O)(=O)NC2CC(C)(C)NC(C)(C)C2)cc1C` the inhibition was inconclusive: 30.3%.
For `O=C(NCCN1CCOCC1)/C(=C/c1ccc(Cl)cc1)NC(=O)c1ccccc1`, the inhibition was inconclusive: 44.9%.
For `CCCCNC(=O)C1(C)CCN1C(=O)Cc1cccc2ccccc12` (stereo not drawn), the inhibition was inactive: -10.1%.
For `N=c1sccn1CC(=O)NC(c1ccccc1)c1ccccc1`, the inhibition was inconclusive: 44.5%.
With `O=C(CNC(=O)c1cccc(Br)c1)N/N=C/c1ccc[nH]1` the inhibition was inconclusive: 27.3%.
With `COc1cc(C2C3=C(COC3=O)Oc3cc4c(cc32)OCO4)cc(OC)c1O` (stereo not drawn) the inhibition was active: 60.2%.
For `Cn1c(=O)c2c(nc(CN3CCCCC3)n2CCc2ccccc2)n(C)c1=O`, the inhibition was inconclusive: 24.8%.
With `Cc1c(C(=O)N/N=C/c2ccncc2)no[n+]1[O-]` the inhibition was inactive: 2.84%.
